Data source: PubChem BioAssay AID1671195 (Yale University, 2021)
This is an unselected part of about 22,000 deposited reagents. About 1,510 of them (6.9%) were called active. 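Active includes knockdowns raising or lowering LDL uptake; positive z-scores mean more uptake, negative mean less.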 Unmarked entries are inactive. Reagent sequences are not shown.

Assay: 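Knockdowns that increase or decrease uptake of fluorescent LDL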 (primary screen)
System: human Huh7 hepatoma cells
Reagent: siRNA pool against human genes, 18 nM
Timing: about 2 to 2.5 days of knockdown, then 8 h LDL uptake
Treatment: DiI-labelled LDL at 30 µg/ml for 8 h, in lipoprotein-deficient serum medium
Detection: 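Fluorescent LDL signal imaged in cells, scaled to the plate median, robust z-score for each replicate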
Direction: robust z-score: higher = more LDL uptake after knockdown
Active means: 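Active when two or more replicates show a robust z-score above 2 or below -2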

| gene | robust z-score, replicate 1 | robust z-score, replicate 2 | robust z-score, replicate 3 |
| --- | --- | --- | --- |
| ARL5C | 0.491 | 0.852 | 0.573 |
| NMBR | 0.0224 | 0.162 | -1.58 |
| TSPO2 | 1.32 | 1.38 | 1.36 |
| ZDHHC9 | 0.171 | -0.0872 | 0.107 |
| SHANK2-AS3 | 1.3 | 0.973 | 1.8 |
| ANXA5 | -0.632 | -1.38 | -0.85 |
| ING3 | -1.23 | -1.12 | -1.31 |
| LRRC27 | 1.52 (active) | 2.18 | 1.99 |
| TLR2 | 1.03 | 0.567 | 0.399 |
| KIF12 | -1.21 | -1.02 | -1.39 |
| EZHIP | -0.432 | -0.448 | -0.64 |
| PRR16 | -0.272 | -1.54 | -0.0389 |
| POLA2 | -0.312 | -1.13 | -0.805 |
| PALS1 | -0.39 | 0.222 | -1.03 |
| USP16 | -0.506 | -0.129 | -0.563 |
| ZNF106 | 0.0559 | 0.977 | 1.28 |
| PODN | 1.16 | 0.789 | 0.00622 |
| GPRIN2 | -0.0597 | -0.764 | -1.32 |
| ZSWIM6 | -1.04 | -1.33 | -0.806 |
| SCD | -0.598 | -1.14 | -0.784 |
| RNF19A | 0.162 | 0.257 | -0.125 |
| TAMALIN | -0.081 | 0.425 | -0.158 |
| HSD17B3 | 0.153 | -0.425 | -0.249 |
| RPL38 | -1.04 | -1.07 | -0.74 |
| NLGN3 | -0.137 | -0.471 | -0.343 |
| MYLK | 0.41 | -0.33 | -0.018 |
| CDKL5 | 0.708 | 0.344 | 1.27 |
| CRB3 | 0.618 | 1.2 | 1.86 |
| SCAP | -1.47 | -0.95 | -1.22 |
| ACP4 | -0.832 | -0.979 | -0.668 |
| SRRM2-AS1 | -1.25 | -0.465 | -1.79 |
| LOC401079 (retired record) | 0.123 | 0.651 | 0.141 |
| PRMT8 | -0.0585 | -0.117 | 0.804 |
| CLEC3B | 0.616 | -0.968 | 1.88 |
| CECR7 | 0.987 | -0.954 | 0.386 |
| TTC39B | 0.587 | 0.956 | 1.25 |
| ESR1 | -0.801 | -1.18 | -1 |
| TNFSF18 | -1.26 | 0.243 | -0.438 |
| PAG1 | -0.87 | -1.48 | -0.811 |
| EVX2 | 0.911 | 0.18 | 0.193 |
| PCSK5 | -1.29 | -0.0181 | -0.675 |
| LOC400740 (retired record) | -1.63 | -1.13 | -0.757 |
| ZNF280A | -1.18 | -0.954 | -1.33 |
| GINM1 | 1.21 | 1.74 | 2.55 |
| TOR2A | 0.0162 | -1.66 | 0.0549 |
| RWDD2A | 1.54 (active) | 2.67 | 2.65 |

Reagents listed above marked active (2):
| gene | robust z-score, replicate 1 | robust z-score, replicate 2 | robust z-score, replicate 3 |
| --- | --- | --- | --- |
| LRRC27 | 1.52 (active) | 2.18 | 1.99 |
| RWDD2A | 1.54 (active) | 2.67 | 2.65 |
